Measurements as given in patent US20140350081A1, “INSECT G-COUPLED RECEPTORS USEFUL AS TARGETS FOR INSECTICIDES AND COMPOUNDS AND REAGENTS IDENTIFIED USING THE SAME” (priority 2011, published 2014).
Like-named read-outs stand apart in the source and are kept apart here.

Test system: Ae. aegypti L3 larvae
Experiment: whole plant or invertebrate
Details: Aedes aegypti

Compound: CN(C)CCOC(c1ccccc1)c1ccccc1 [Diphenhydramine]
- mortality at 400 µM (0.5 h, read-out: percent mortality 0.5 hr): 0%
- mortality at 400 µM (1 h, read-out: percent mortality 1 hr): 10%
- mortality at 400 µM (2 h, read-out: percent mortality 2 hr): 10%
- mortality at 400 µM (3 h, read-out: percent mortality 3 hr): 0%
- mortality at 400 µM (4 h, read-out: percent mortality 4 hr): 0%
- mortality at 400 µM (48 h, read-out: percent mortality 48 hr): 10%
- mortality at 400 µM (72 h, read-out: percent mortality 72 hr): 0%
- mortality at 400 µM ([…], read-out: percent mortality […]): 0%
